Laboratory results from PMC9714371, “Haemophilus influenzae Protein D antibody suppression in a multi‐component vaccine formulation” (FEBS Open Bio, 2022).
These are yes or no findings as the source states them, for the method shown. For some assays here: In cells and extracts the contact can be indirect. Sequences can lack the tags named with a protein.

Assays:
[1] = target: T1, His‐tagged Protein D (non‐lipidated, N‐terminal signal sequence removed) (Haemophilus influenzae (NTHi)) (UniProt Q06282); assay: pull-down; cobalt affinity purification with aluminum hydroxide (500 μg/mL) added to the 1:1 mixture of E. coli lysates of non-His-tagged OMP26 and His-tagged PD; Talon column, flow-through, wash and 150 mM imidazole elution fractions on Coomassie-stained SDS/PAGE
T1 sequence: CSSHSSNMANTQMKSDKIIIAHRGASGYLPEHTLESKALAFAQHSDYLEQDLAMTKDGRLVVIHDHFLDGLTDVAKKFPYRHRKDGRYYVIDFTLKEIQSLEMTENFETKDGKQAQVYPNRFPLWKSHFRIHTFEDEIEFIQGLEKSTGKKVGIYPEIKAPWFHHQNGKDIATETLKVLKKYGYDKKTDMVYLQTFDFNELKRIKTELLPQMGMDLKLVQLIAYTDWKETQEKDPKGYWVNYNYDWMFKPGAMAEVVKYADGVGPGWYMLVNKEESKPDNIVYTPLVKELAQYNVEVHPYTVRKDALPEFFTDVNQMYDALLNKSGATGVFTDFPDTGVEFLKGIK

[2] = target: T1, His‐tagged Protein D (non‐lipidated, N‐terminal signal sequence removed) (Haemophilus influenzae (NTHi)); assay: pull-down; cobalt affinity purification: E. coli lysates of His-tagged PD and non-tagged OMP26 mixed 1:1, incubated with Talon cobalt beads 1 h at room temperature or overnight at 4 °C, eluted with 150 mM imidazole; read by Coomassie-stained SDS/PAGE and, in a repeat, by immunoblot with mouse antisera to PD and OMP26
[3] = target: T2, His‐tagged outer membrane protein 26 (OMP26) (Haemophilus influenzae (NTHi)) (UniProt Q57483); assay: pull-down; cobalt affinity purification: E. coli lysates of His-tagged OMP26 and non-tagged PD mixed 1:1, with low imidazole (15 mM) to reduce non-specific binding of non-tagged PD to the Talon beads; eluted with 150 mM imidazole; read by Coomassie-stained SDS/PAGE and, in a repeat, by immunoblot
T2 sequence: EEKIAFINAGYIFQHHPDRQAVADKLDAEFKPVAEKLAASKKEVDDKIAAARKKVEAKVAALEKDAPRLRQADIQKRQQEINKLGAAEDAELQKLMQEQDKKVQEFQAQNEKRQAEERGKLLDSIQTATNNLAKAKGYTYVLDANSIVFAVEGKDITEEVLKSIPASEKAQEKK

[4] = target: T1, His‐tagged Protein D (non‐lipidated, N‐terminal signal sequence removed) (Haemophilus influenzae (NTHi)); assay: SEC; HiLoad 16/600 Superdex 200 pg in PBS, 0.5 mL/min; Talon-purified PD alone, OMP26 alone, or 1:1 mixture incubated 1 h at 4 °C; peak fractions on Coomassie-stained SDS/PAGE; both purified
[5] = target: T1, His‐tagged Protein D (non‐lipidated, N‐terminal signal sequence removed) (Haemophilus influenzae (NTHi)); assay: native MS; nano-electrospray native MS with ion mobility (Waters Synapt G2); His-tagged proteins in 200 mM ammonium acetate pH 6.8, 5 μM; PD alone, OMP26 alone, 1:1 mixture; both purified

B1: Non‐His‐tagged outer membrane protein 26 (OMP26) (protein, UniProt Q57483 24-197)
chain: EEKIAFINAGYIFQHHPDRQAVADKLDAEFKPVAEKLAASKKEVDDKIAAARKKVEAKVAALEKDAPRLRQADIQKRQQEINKLGAAEDAELQKLMQEQDKKVQEFQAQNEKRQAEERGKLLDSIQTATNNLAKAKGYTYVLDANSIVFAVEGKDITEEVLKSIPASEKAQEKK
- binding [1]: no binding
- binding [2]: no binding

B2: His‐tagged Protein D (non‐lipidated, N‐terminal signal sequence removed) (natural protein)
chain: CSSHSSNMANTQMKSDKIIIAHRGASGYLPEHTLESKALAFAQHSDYLEQDLAMTKDGRLVVIHDHFLDGLTDVAKKFPYRHRKDGRYYVIDFTLKEIQSLEMTENFETKDGKQAQVYPNRFPLWKSHFRIHTFEDEIEFIQGLEKSTGKKVGIYPEIKAPWFHHQNGKDIATETLKVLKKYGYDKKTDMVYLQTFDFNELKRIKTELLPQMGMDLKLVQLIAYTDWKETQEKDPKGYWVNYNYDWMFKPGAMAEVVKYADGVGPGWYMLVNKEESKPDNIVYTPLVKELAQYNVEVHPYTVRKDALPEFFTDVNQMYDALLNKSGATGVFTDFPDTGVEFLKGIK
notes: Gene bought from GenScript, in pET21a; also called PD; His‐tagged PD; source: E. coli BL‐21*, IPTG induced; not shown: His6, N-terminal, kept
- binding [3]: no binding

B3: His‐tagged outer membrane protein 26 (OMP26) (natural protein)
chain: EEKIAFINAGYIFQHHPDRQAVADKLDAEFKPVAEKLAASKKEVDDKIAAARKKVEAKVAALEKDAPRLRQADIQKRQQEINKLGAAEDAELQKLMQEQDKKVQEFQAQNEKRQAEERGKLLDSIQTATNNLAKAKGYTYVLDANSIVFAVEGKDITEEVLKSIPASEKAQEKK
notes: OMP26, 26-kDa outer membrane protein of Haemophilus influenzae, homolog of E. coli Skp; Gene bought from GenScript; Predominantly trimers by native MS and SEC, with hexamers in low abundance; also called His‐tagged OMP26; source: E. coli BL‐21*, IPTG induced; not shown: His6, N-terminal, kept
- binding [4]: no binding
- binding [5]: no binding (tested: 5 μM)
